Compound in this assay: Nc1ncnc2c1ncn2[C@@H]1O[C@H](COP(=O)(O)OP(=O)(O)OP(=O)(O)O)[C@@H](O)[C@H]1O [adenosine triphosphate]
As to the kind of experiment: NP40-soluble protein abundance relative to vehicle (solubility fold change) (ratio); higher = more soluble protein in presence of ATP. The method, boiled down:
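Values are fold changes against the detergent-processed vehicle, based on vsn-normalised intensities. Jurkat crude lysate was treated at eight concentrations from 0.1 to 10 mM (10 min at room temperature, then 3 min at 37 °C), solubilised with 0.8% NP40 and benzonase, ultracentrifuged and analysed by TMT-labelled LC-MS/MS over three independent experiments.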

Sequences of proteins named here, by UniProt entry; tags and fusion partners are left off. A change or cut given only in a name is not applied to a line headed by its entry.
UniProt Q96R06: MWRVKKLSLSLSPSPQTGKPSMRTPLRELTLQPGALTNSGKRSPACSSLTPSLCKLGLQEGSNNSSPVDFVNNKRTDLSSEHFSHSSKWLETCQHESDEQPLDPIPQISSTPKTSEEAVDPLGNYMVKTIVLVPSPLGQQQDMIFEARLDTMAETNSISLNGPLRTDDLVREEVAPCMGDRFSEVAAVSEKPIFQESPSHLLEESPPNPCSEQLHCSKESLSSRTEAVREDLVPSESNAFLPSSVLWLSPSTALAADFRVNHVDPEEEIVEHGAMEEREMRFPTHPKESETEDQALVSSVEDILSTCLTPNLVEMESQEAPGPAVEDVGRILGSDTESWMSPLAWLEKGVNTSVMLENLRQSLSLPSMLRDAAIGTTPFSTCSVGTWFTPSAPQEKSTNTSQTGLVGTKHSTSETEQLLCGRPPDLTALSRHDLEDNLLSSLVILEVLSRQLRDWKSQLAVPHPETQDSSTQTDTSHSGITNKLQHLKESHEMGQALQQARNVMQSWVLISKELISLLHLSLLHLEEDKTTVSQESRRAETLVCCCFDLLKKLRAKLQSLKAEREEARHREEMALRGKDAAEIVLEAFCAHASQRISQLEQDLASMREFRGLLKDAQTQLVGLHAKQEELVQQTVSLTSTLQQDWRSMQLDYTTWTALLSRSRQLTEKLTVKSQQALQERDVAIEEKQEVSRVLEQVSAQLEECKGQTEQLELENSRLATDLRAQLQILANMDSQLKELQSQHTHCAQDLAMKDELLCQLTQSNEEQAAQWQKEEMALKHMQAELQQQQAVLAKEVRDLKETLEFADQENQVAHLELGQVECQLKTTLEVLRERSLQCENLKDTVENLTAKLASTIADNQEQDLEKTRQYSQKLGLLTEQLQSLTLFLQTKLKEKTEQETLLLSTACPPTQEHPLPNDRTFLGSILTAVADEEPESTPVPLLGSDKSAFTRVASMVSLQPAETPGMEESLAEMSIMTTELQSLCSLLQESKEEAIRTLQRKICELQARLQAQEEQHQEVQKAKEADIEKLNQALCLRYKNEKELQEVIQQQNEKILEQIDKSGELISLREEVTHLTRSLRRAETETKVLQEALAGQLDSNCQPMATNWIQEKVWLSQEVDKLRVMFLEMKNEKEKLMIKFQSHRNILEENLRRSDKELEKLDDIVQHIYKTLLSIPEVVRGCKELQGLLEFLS
UniProt Q96KP4: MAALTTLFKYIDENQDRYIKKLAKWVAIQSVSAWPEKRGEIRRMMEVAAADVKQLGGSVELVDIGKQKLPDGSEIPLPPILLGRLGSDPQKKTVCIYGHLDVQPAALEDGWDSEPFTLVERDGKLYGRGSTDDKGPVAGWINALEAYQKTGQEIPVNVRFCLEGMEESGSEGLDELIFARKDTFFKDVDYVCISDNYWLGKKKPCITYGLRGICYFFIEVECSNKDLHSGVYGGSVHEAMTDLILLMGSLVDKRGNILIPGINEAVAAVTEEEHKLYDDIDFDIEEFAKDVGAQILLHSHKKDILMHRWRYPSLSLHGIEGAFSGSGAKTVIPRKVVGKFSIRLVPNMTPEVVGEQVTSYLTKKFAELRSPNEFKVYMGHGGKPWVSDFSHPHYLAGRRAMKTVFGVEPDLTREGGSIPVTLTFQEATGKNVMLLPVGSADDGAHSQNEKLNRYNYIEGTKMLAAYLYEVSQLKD
UniProt Q96BR5: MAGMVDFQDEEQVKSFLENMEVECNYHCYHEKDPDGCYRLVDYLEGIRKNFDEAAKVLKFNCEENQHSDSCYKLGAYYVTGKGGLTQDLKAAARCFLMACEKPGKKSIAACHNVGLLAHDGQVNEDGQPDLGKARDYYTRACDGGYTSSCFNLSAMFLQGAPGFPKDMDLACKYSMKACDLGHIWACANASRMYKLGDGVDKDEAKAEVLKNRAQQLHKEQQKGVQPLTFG
UniProt Q96BP3: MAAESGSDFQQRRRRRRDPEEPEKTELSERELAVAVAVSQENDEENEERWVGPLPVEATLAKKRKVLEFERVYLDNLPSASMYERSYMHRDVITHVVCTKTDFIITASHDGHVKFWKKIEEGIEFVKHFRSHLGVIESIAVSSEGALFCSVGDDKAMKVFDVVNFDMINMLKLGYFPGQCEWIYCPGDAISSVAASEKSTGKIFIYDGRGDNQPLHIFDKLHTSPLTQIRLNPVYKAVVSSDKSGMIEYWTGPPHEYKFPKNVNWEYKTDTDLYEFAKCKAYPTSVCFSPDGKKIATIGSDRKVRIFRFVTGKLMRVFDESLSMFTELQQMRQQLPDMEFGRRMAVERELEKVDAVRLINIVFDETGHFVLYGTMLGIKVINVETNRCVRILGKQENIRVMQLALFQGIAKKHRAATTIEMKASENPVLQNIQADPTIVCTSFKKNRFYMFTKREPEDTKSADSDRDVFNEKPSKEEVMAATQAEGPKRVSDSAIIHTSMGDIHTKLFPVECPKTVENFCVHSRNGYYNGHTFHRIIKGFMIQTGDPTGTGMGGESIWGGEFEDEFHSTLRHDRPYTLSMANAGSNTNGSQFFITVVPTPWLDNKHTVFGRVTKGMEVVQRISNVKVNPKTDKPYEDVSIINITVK
UniProt Q96BS2: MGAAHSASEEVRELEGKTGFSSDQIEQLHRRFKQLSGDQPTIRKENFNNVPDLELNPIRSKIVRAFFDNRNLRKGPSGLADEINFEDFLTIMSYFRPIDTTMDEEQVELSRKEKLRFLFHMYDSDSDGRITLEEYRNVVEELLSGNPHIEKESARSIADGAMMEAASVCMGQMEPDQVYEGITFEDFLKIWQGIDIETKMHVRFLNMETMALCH
UniProt Q96JK2, whole entry: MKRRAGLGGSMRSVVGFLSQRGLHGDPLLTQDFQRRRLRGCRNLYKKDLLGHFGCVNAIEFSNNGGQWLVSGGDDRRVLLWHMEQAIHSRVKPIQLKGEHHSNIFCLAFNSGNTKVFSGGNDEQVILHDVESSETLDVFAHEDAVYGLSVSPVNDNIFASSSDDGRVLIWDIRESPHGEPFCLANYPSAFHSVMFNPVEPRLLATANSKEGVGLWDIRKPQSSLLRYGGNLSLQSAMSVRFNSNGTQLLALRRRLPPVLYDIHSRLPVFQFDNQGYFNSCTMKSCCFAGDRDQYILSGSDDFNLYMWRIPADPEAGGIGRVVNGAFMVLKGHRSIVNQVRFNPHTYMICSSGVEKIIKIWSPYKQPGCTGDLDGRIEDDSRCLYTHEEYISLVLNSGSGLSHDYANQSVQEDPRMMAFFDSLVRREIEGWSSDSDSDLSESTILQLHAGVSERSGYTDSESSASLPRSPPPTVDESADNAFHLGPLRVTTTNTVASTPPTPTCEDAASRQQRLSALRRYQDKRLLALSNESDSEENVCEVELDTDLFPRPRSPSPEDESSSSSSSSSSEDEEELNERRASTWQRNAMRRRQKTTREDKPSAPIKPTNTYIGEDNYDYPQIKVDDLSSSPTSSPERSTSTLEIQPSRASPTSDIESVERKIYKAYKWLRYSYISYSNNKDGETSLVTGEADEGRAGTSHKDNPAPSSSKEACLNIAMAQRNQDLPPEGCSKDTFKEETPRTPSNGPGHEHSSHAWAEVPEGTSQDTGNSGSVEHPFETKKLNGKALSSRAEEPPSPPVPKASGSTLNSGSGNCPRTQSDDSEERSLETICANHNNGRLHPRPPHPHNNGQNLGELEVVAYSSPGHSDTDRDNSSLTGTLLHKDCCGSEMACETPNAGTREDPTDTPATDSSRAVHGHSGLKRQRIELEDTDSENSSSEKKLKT
UniProt Q96H20: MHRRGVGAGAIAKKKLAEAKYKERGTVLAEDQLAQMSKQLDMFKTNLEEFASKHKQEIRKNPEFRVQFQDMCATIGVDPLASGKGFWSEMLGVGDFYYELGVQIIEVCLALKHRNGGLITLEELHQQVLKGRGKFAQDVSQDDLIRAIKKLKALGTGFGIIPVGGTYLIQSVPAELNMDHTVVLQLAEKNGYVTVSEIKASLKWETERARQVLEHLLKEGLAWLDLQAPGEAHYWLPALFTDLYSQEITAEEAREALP
UniProt Q96D71: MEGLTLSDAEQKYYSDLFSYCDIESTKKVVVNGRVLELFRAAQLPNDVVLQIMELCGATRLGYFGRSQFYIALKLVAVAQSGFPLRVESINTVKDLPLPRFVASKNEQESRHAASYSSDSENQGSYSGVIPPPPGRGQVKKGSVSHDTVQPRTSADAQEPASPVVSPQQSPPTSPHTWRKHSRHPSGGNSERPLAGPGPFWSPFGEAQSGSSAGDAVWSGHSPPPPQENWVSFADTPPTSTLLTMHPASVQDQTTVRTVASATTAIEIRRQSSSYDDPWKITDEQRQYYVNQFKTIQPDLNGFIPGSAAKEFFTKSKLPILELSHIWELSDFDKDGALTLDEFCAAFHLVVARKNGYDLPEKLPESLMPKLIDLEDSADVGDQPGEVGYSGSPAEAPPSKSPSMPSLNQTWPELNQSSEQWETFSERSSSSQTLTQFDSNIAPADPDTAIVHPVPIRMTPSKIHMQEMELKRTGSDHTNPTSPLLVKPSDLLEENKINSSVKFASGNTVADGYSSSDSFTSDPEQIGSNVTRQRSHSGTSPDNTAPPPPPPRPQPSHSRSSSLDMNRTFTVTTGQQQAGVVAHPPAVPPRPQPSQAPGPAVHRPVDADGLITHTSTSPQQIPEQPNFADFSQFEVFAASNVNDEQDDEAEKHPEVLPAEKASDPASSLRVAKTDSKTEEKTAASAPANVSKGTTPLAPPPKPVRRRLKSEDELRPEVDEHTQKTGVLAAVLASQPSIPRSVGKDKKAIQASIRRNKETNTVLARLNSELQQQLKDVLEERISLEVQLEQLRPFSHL
UniProt Q96CG8: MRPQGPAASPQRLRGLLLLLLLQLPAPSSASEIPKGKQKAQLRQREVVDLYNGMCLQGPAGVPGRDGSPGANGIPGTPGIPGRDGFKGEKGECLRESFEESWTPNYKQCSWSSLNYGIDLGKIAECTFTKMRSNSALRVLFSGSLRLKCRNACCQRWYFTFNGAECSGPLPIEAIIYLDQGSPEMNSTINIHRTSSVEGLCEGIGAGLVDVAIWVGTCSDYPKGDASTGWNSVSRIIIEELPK
UniProt Q96EV8: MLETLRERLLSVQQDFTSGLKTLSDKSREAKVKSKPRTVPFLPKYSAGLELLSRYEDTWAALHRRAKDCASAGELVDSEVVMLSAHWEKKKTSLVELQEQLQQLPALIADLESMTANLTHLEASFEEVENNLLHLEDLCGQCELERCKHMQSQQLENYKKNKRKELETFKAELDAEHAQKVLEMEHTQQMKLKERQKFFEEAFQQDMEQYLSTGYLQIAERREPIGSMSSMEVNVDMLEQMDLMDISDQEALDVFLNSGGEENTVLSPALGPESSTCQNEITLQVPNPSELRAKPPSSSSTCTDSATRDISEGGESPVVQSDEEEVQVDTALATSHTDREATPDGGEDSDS
UniProt Q96RL1: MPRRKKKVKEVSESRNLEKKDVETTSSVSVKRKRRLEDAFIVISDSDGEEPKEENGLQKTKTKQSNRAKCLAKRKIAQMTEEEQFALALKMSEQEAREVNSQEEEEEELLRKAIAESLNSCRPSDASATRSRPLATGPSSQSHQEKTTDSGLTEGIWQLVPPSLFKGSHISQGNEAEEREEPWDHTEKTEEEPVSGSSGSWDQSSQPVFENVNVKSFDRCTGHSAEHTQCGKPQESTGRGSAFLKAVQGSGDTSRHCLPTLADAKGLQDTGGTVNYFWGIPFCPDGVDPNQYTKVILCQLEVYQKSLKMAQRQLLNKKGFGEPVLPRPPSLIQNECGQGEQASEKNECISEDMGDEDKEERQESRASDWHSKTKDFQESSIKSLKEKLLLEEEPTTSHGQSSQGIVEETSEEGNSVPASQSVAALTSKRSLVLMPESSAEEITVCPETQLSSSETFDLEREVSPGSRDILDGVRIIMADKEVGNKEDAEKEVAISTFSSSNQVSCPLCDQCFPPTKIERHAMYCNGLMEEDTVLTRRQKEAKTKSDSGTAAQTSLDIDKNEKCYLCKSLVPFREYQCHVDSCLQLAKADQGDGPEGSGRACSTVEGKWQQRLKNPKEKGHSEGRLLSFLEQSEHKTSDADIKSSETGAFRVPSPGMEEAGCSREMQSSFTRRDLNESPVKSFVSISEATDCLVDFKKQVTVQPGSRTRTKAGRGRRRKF
UniProt Q96E52: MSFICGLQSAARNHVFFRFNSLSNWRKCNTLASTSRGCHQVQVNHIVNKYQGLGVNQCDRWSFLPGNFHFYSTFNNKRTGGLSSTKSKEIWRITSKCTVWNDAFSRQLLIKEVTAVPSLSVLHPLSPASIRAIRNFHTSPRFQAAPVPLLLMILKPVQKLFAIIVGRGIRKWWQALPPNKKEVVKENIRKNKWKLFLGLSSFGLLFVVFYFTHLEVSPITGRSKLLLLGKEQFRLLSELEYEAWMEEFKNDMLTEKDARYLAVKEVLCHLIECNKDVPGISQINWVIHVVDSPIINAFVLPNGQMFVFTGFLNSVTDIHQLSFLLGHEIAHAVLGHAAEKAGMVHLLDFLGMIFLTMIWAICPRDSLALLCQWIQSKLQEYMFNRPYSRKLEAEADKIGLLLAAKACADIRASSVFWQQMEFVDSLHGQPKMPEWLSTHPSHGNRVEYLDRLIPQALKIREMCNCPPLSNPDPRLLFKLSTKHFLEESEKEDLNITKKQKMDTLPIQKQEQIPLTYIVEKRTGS

± gives the standard deviation of the averaged measurements. The list shows a part of the results, in another mix than the full data. Small differences around the control level are noise.

Take SPAG5 (UniProt Q96R06): the NP40-soluble protein abundance was found to be 0.986 ± 0.025 (concentration: 0.1mM) and 1.02 ± 0.031 (concentration: 0.5mM).
As for CCDC51 (UniProt Q96ER9), the NP40-soluble protein abundance runs as follows: (concentration: 0.1mM) 1.01 ± 0.017; (concentration: 0.5mM) 0.991 ± 0.021.
Take UniProt Q96ME1-4: the NP40-soluble protein abundance was 1.03 ± 0.1 (concentration: 0.1mM) and 0.985 ± 0.035 (concentration: 0.5mM).
In the case of CNDP2 (UniProt Q96KP4), the NP40-soluble protein abundance is, setting by setting: (concentration: 0.1mM) 1.05 ± 0.058; (concentration: 0.5mM) 1.07 ± 0.1.
Consider UniProt Q96L73 and related entries, for which the NP40-soluble protein abundance (concentration: 0.1mM) is 0.892 ± 0.1 and the NP40-soluble protein abundance (concentration: 0.5mM) is 1.06 ± 0.14.
UniProt Q96G74 and related entries: the NP40-soluble protein abundance reads like this: (concentration: 0.1mM) 1.04 ± 0.014; (concentration: 0.5mM) 1.02 ± 0.065.
For the target UniProt Q96BR5, the NP40-soluble protein abundance (concentration: 0.1mM) was determined as 0.978 ± 0.052 and the NP40-soluble protein abundance (concentration: 0.5mM) is 0.981 ± 0.04.
Taken in the same sequence, the figures for PPWD1 (UniProt Q96BP3) were 1.01 ± 0.042 and 1.03 ± 0.044.
Taken in the same sequence, the figures for UniProt Q96BS2 and related entries were 0.998 ± 0.084 and 0.984 ± 0.098.
As to UniProt Q96JK2 and related entries, the NP40-soluble protein abundance by setting is: (concentration: 0.1mM) 1.01 ± 0.018; (concentration: 0.5mM) 0.999 ± 0.045.
The corresponding values for SNF8 (UniProt Q96H20) are 1.02 ± 0.032 and 0.942 ± 0.057.
Take UniProt Q96D71 and related entries: the NP40-soluble protein abundance was 1.03 ± 0.018 (concentration: 0.1mM) and 1.04 ± 0.032 (concentration: 0.5mM).
Consider UniProt Q96CG8 and related entries, for which the NP40-soluble protein abundance by setting is: (concentration: 0.1mM) 0.976 ± 0.04; (concentration: 0.5mM) 0.967 ± 0.042.
On to VCPIP1 (UniProt Q96JH7), for which the NP40-soluble protein abundance is, setting by setting: (concentration: 0.1mM) 1.03 ± 0.02; (concentration: 0.5mM) 1.03 ± 0.039.
Consider UniProt Q96EV8 and related entries, for which the NP40-soluble protein abundance turned out to be 1.03 ± 0.038 (concentration: 0.1mM) and 0.965 ± 0.027 (concentration: 0.5mM).
On to AJUBA (UniProt Q96IF1), for which the NP40-soluble protein abundance (concentration: 0.1mM) came out at 1.01 ± 0.12 and the NP40-soluble protein abundance (concentration: 0.5mM) came out at 0.994 ± 0.029.
In the case of WDR92 (UniProt Q96MX6), the NP40-soluble protein abundance reads like this: (concentration: 0.1mM) 1.03 ± 0.025; (concentration: 0.5mM) 1.06 ± 0.064.
Take UIMC1 (UniProt Q96RL1): the NP40-soluble protein abundance by setting is: (concentration: 0.1mM) 0.9873 ± 0.0098; (concentration: 0.5mM) 0.997 ± 0.029.
The corresponding values for UniProt Q96HH6 and related entries are 1.03 ± 0.06 and 1.07 ± 0.0045.
The corresponding values for LENG1 (UniProt Q96BZ8) are 0.946 ± 0.08 and 0.86 ± 0.11.
In the case of OMA1 (UniProt Q96E52), the NP40-soluble protein abundance reads like this: (concentration: 0.1mM) 1.07 ± 0.12; (concentration: 0.5mM) 1.08 ± 0.14.
As for RBMXL1 (UniProt Q96E39), the NP40-soluble protein abundance is, setting by setting: (concentration: 0.1mM) 0.992 ± 0.019; (concentration: 0.5mM) 1.1 ± 0.032.

Values taken from the supplement of paper PMC6411743.
